These are literature values, as cited in US9248104B2 (priority 2006, dated 2016).

The conditions of the series: from Physician's Desk Reference.

As to `COc1cc2c(cc1OC)C(=O)C(CC1CCN(Cc3ccccc3)CC1)C2` (stereo not shown) [donepezil], the elimination half life entry is listed as “approximately 70 hours”.
